Experimental data as given in publication PMC6747150.
Results are given in words; binding and its absence hold for the method and conditions named. Some entries that bind do so weakly or less than the wild type.

Biological target: Csp3 from Bacillus subtilis (BsCsp3) (Bacillus subtilis) (UniProt O07571)
Assay: SEC; Superdex 75 10/300 GL, 20 mM Hepes pH 7.5 plus 200 mM NaCl; BsCsp3-containing anion-exchange fractions from cell-free extracts; elution position compared with the purified BsCsp3 tetramer; both purified

binding: binds
B1: Csp3 from Bacillus subtilis (BsCsp3) (protein, UniProt O07571 1-108)
chain: MEQYSEACIEACIDCMKACNHCFTKCLEESVQHHLSGCIRLDRECADICALAVKAMQTDSPFMKEICALCADICEACGTECGKHDHDHCQACAKACFTCAEQCRSMAA
